## Assay results

The results are deposited in PubChem (AID1159506; NCATS, 2015).

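Genome-wide siRNA knockdown in TC32 Ewing sarcoma cells, comparing luciferase light from an NR0B1-promoter reporter with a CMV-promoter reporter 48 hours after transfection. Each siRNA was applied at 20 nM. A z-score of the log NR0B1-over-CMV signal, less the median of siRNAs with the same seed; more negative means a stronger specific loss of the NR0B1 reporter.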

This is part of the screen; most of the strongest results are not listed here. Sequences are the guide (antisense) strand, without overhang.

Sequence,gene,seed-corrected z-score
UUGGAGACAAAUGUAGUCC,IAH1,-0.03486
UAGUGGUCAAGCUCAUUUC,RPL23AP14,-1.096
UUGGGCGAGAUGUUGGACU,DUSP7,-1.193
UAUAAUCGUAGGGAAGGUC,HLCS,0.8955
UAAGCAGUAGCGGGACAGG,NDUFA4L2,1.335
AAAGGUAUUAUUAAGUAGC,C5orf47,-0.3777
UCCCUUACCCUGAAGCUUC,GKN1,-0.1862
UAGCAGAAUUGUGACCACG,GPRC5D,1.011
UUCAGCACUGGUUUCAUCC,CLIC1,0.5184
AUCGUAAACAUUACUAUUC,VCPIP1,-0.4742
UAAAUCUCCCGCUUGUGCU,DNAJB2,-0.1543
UCCGGGCUGAUUUUGGUUC,FAM171A1,0.001042
UUCUCAAACUUGUACUUGC,MDK,-0.474
AUUCGUAUCGCUUAAUUUC,PFDN6,1.31
UUUCUAACAAAAUGAUCGC,ZNF521,-0.01979
UUUACUAUGUAGUUGAAUC,FMN2,0.4064
UUGGUGAAGGUCAUAUUCG,HOMER2,-0.8645
AAAGUGGUCGAUGACAUUG,OR4C45,-0.1433
UCUCUGUUCACGUCAUAGG,ITIH3,-0.9849
UCAAGUUGGAUGACUGGUG,RANBP9,-0.328
UUUCUGACCCACGUCCUCG,ITPKA,-0.5879
GCAGGCUCCAGUAGAAGAC,MRGPRG,0.3542
AGCUGUUCAAUCUUGGGUG,TGFB2,-0.2376
UUUGAUGUAUGUCACAUGG,IMPAD1,-0.4906
AUCCGUCUCGUCUUCUUCC,LENG1,0.4391
UAUCAUUCAUCAUAUAUUC,NOTUM,0.5919
UGCAUUACCACUGAUAUCU,ZNF789,-0.6969
UAUGAUAUCUCUCCAUUUG,PCDHB15,0.09439
UACAUGUCGCCGCGGAUGU,RASD2,-1.288
UCAUUGUCUCUAGCUAGUC,PIK3CA,-0.9435
AAAUGUCCUCGAAGAAUUU,DBNDD2,0.1477
UGUUCUACACUUCACAUGG,LINC00460,-1.451
UUGCCGCUCAUGAUCAUCC,PHKG1,-0.6239
AACCGAACUGGUCAGAUGG,RPS15AP25,-0.6321
UUUGUAGGCGCUGAAGCAC,ZSWIM3,1.106
UUCCUUUUUAUACAGGAGG,CLDN20,-0.9999
UUUGUUGACUUGUUCAAUC,LOC648999,0.4448
UAAGUAUCCACGUCCACCC,NFE2L1,0.02465
AAAGAGAACCUGUAGCUCC,OR5M9,0.3966
UAGAAAUAGAGAUCUAUAC,COPZ1,-1.789
UGAUGUAGUACUCCACAGC,TMEM201,-0.04411
UCAUAGUUGACAGAGAGCC,TADA2B,0.6309
UUAAGAGAAAGCACUGUUU,BLID,0.4131
UUCAGACUAACCAUAAUGC,C9orf66,0.05088
UAAGGUAUAGGUAAGAGUG,NPY2R,-0.1811
UAACUUAGGAAGGGCGGGC,ZNF787,-1.392
UACAGGACAAUCUCCCAUG,CD163,-0.8559
UACGAAAUAUCAAUGAUGG,OR2A5,-0.4509
AACGGACUGAGUAAAUAGC,HELZ,-0.7911
UCUAUUAUAUUCUCGAUCC,KRTAP12-1,1.123
UUGGAUUCGAUGGUGAAGC,FLT4,0.5274
AAGGUGUUGAGUCUCUUCC,PLXNB3,-0.3355
UCAGGAUCUACAGUGAGAC,SCYL1,0.08124
UUUGCUAUAAGCCCGUUUC,EPHB1,-0.6833
UCAGUAUAAUUGCCCAACC,FBXO15,-0.07575
UAACCUGCAAAGGUACUGG,AKR1C6P,-0.00243
UUCUUAUCCAUAACGGAGU,RETNLB,0.9788
UCUGUGAAUAUGAUCCAGG,MOK,0.2416
AUCUUUACAGCUGCUUUUG,IQCF2,0.2181
AAAGUCACUCUUUCAGUGG,CASP1,0.9706
AAAACAUUAUUUCUCACCU,BRI3,0.9476
AAUAGAUUCUCUAAUAUGG,CDK5RAP1,0.004929
CAAGGACUUCCACGAAAGC,NPIPB1P,0.4173
AAUUUUACAUCGGAUAUGG,PPP2R2D,0.6445
UAUGGGAAUACCACUUGGG,SYNJ2BP,-0.3995
UCUGUAUCAGGAAAUAGUG,POLR3G,-0.9573
UCAGGAUUAAGUAGCUUAG,PIH1D3,1.883
UAUGAAUACUGAUUGAGGC,SERPINH1,0.6712
UAGACUGUGAUAAUCUUAG,SPATA9,-0.208
UCUGGGAUAAGGCGAAGGC,NFATC2IP,-0.6252
UUUGACAAAGGUUUUUGCG,DACT1,0.3108
UACCCACUUGAAGUGAUCC,NECAP1,0.2849
UCAUUGGUGAGUGAGUACC,NPR1,0.07952
UUCUCGUUGAUCUCGUCCC,KIF5A,-0.2431
UCUUUAGCAGGUGAUACUG,TMEM202,0.5635
UGACUGUUAAAUCCAUACC,DHODH,-0.601
UUUGUGAUGGAUUUGAUGC,CSNK1G2-AS1,0.03452
UCAGAUACUGGUGUAACAG,KLF10,0.1214
UAACCUCCCAUUCAUGAGC,OR10G2,-0.3787
UUCAUUAGCAAAUUGACUG,SLC38A4,1.381
UACUAGUAUAGGAACAGUC,DBT,0.08925
UCUUUGUAAAUAUUCCACC,FASTKD3,0.7085
UCAUCCACCAUCUAGCUUC,RMDN3,0.04732
AGAAGGACAAUGUUGUAGG,CCR5,-0.9182
UAAUCACCUAGGAAAGUUC,PEMT,0.8834

For reference, 9 entries once more:

{"sequence": "UACCCACUUGAAGUGAUCC", "gene": "NECAP1", "seed-corrected z-score": "0.2849"}
{"sequence": "UAUCAUUCAUCAUAUAUUC", "gene": "NOTUM", "seed-corrected z-score": "0.5919"}
{"sequence": "UAUGAUAUCUCUCCAUUUG", "gene": "PCDHB15", "seed-corrected z-score": "0.09439"}
{"sequence": "UCAUAGUUGACAGAGAGCC", "gene": "TADA2B", "seed-corrected z-score": "0.6309"}
{"sequence": "AAAACAUUAUUUCUCACCU", "gene": "BRI3", "seed-corrected z-score": "0.9476"}
{"sequence": "UCUGUAUCAGGAAAUAGUG", "gene": "POLR3G", "seed-corrected z-score": "-0.9573"}
{"sequence": "UUCAUUAGCAAAUUGACUG", "gene": "SLC38A4", "seed-corrected z-score": "1.381"}
{"sequence": "UUGCCGCUCAUGAUCAUCC", "gene": "PHKG1", "seed-corrected z-score": "-0.6239"}
{"sequence": "UCAGUAUAAUUGCCCAACC", "gene": "FBXO15", "seed-corrected z-score": "-0.07575"}